System: Enterococcus faecium ATCC700221 (VRE)
Assay: MIC/FIC/FICI determination, MHB broth microdilution (CLSI M07-A9)
Assay type: cell-based

Compound: CN[C@H](CC(C)C)C(=O)N[C@H]1C(=O)N[C@@H](CC(N)=O)C(=O)N[C@H]2C(=O)N[C@H]3C(=O)N[C@H](C(=O)N[C@H](C(=O)O)c4cc(O)cc(O)c4-c4cc3ccc4O)[C@H](O)c3ccc(c(Cl)c3)Oc3cc2cc(c3O[C@@H]2O[C@H](CO)[C@@H](O)[C@H](O)[C@H]2O[C@H]2C[C@](C)(N)[C@H](O)[C@H](C)O2)Oc2ccc(cc2Cl)[C@H]1O [vancomycin]
- MIC (24 h): > 32 µg/mL
- MIC (48 h): > 32 µg/mL

— patent publication US20140294925A1 (priority 2013, published 2014)
